Experimental findings from the supplement of paper PMC12067093, “Discovery and optimisation of a covalent ligand for TRIM25 and its application to targeted protein ubiquitination” (Chemical Science, 2025) are described below.

Sequences of proteins named here, by UniProt entry; tags and fusion partners are left off. A change or cut given only in a name is not applied to a line headed by its entry.
UniProt Q15154: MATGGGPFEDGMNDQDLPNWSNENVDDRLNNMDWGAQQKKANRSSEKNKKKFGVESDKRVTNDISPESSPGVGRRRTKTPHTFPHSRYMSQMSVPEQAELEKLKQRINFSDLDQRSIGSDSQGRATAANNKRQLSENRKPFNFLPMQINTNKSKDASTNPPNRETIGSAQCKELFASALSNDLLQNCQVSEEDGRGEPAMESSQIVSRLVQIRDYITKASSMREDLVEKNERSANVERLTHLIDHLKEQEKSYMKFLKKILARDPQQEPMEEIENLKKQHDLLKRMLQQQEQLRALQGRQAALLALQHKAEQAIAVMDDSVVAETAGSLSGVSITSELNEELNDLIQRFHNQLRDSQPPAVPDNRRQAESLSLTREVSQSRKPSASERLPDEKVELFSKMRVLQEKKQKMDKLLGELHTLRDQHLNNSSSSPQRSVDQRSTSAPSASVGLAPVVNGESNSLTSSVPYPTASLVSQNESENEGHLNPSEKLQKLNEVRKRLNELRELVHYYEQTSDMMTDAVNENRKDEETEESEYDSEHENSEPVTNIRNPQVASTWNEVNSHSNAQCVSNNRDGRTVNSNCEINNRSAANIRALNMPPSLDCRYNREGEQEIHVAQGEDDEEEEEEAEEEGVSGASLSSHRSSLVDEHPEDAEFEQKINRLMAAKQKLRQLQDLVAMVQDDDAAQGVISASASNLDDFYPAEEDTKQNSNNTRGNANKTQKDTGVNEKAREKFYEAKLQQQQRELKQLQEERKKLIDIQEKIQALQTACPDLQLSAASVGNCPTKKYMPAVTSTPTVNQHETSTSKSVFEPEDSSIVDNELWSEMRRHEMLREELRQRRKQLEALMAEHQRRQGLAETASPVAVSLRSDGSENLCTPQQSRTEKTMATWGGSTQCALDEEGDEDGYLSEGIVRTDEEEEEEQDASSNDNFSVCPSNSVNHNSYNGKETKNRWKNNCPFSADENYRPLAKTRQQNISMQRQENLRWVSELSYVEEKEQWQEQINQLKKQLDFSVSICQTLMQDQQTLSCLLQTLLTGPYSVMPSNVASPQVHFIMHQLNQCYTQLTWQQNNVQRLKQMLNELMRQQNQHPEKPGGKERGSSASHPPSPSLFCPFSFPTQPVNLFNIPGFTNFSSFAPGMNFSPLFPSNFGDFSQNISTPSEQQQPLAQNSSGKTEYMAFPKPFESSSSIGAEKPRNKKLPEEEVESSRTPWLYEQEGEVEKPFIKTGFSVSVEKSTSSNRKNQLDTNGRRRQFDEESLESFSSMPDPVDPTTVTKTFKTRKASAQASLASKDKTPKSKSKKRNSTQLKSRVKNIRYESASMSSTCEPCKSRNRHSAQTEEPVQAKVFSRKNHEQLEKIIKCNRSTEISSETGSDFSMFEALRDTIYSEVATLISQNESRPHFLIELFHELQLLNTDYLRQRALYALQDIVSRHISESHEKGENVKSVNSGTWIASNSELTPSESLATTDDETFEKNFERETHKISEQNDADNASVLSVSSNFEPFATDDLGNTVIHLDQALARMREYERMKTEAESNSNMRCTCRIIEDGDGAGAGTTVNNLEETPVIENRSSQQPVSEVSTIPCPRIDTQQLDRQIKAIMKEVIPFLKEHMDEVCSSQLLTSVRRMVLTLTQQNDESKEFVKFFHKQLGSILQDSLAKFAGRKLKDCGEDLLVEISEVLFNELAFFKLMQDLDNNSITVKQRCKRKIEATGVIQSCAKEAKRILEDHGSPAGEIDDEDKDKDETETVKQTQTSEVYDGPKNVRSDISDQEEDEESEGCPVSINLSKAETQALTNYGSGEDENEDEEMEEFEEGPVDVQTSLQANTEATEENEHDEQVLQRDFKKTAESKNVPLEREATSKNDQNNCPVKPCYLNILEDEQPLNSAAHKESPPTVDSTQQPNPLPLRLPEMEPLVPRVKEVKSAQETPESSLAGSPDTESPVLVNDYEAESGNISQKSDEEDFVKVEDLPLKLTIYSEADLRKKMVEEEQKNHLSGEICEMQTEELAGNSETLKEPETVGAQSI
UniProt O95613: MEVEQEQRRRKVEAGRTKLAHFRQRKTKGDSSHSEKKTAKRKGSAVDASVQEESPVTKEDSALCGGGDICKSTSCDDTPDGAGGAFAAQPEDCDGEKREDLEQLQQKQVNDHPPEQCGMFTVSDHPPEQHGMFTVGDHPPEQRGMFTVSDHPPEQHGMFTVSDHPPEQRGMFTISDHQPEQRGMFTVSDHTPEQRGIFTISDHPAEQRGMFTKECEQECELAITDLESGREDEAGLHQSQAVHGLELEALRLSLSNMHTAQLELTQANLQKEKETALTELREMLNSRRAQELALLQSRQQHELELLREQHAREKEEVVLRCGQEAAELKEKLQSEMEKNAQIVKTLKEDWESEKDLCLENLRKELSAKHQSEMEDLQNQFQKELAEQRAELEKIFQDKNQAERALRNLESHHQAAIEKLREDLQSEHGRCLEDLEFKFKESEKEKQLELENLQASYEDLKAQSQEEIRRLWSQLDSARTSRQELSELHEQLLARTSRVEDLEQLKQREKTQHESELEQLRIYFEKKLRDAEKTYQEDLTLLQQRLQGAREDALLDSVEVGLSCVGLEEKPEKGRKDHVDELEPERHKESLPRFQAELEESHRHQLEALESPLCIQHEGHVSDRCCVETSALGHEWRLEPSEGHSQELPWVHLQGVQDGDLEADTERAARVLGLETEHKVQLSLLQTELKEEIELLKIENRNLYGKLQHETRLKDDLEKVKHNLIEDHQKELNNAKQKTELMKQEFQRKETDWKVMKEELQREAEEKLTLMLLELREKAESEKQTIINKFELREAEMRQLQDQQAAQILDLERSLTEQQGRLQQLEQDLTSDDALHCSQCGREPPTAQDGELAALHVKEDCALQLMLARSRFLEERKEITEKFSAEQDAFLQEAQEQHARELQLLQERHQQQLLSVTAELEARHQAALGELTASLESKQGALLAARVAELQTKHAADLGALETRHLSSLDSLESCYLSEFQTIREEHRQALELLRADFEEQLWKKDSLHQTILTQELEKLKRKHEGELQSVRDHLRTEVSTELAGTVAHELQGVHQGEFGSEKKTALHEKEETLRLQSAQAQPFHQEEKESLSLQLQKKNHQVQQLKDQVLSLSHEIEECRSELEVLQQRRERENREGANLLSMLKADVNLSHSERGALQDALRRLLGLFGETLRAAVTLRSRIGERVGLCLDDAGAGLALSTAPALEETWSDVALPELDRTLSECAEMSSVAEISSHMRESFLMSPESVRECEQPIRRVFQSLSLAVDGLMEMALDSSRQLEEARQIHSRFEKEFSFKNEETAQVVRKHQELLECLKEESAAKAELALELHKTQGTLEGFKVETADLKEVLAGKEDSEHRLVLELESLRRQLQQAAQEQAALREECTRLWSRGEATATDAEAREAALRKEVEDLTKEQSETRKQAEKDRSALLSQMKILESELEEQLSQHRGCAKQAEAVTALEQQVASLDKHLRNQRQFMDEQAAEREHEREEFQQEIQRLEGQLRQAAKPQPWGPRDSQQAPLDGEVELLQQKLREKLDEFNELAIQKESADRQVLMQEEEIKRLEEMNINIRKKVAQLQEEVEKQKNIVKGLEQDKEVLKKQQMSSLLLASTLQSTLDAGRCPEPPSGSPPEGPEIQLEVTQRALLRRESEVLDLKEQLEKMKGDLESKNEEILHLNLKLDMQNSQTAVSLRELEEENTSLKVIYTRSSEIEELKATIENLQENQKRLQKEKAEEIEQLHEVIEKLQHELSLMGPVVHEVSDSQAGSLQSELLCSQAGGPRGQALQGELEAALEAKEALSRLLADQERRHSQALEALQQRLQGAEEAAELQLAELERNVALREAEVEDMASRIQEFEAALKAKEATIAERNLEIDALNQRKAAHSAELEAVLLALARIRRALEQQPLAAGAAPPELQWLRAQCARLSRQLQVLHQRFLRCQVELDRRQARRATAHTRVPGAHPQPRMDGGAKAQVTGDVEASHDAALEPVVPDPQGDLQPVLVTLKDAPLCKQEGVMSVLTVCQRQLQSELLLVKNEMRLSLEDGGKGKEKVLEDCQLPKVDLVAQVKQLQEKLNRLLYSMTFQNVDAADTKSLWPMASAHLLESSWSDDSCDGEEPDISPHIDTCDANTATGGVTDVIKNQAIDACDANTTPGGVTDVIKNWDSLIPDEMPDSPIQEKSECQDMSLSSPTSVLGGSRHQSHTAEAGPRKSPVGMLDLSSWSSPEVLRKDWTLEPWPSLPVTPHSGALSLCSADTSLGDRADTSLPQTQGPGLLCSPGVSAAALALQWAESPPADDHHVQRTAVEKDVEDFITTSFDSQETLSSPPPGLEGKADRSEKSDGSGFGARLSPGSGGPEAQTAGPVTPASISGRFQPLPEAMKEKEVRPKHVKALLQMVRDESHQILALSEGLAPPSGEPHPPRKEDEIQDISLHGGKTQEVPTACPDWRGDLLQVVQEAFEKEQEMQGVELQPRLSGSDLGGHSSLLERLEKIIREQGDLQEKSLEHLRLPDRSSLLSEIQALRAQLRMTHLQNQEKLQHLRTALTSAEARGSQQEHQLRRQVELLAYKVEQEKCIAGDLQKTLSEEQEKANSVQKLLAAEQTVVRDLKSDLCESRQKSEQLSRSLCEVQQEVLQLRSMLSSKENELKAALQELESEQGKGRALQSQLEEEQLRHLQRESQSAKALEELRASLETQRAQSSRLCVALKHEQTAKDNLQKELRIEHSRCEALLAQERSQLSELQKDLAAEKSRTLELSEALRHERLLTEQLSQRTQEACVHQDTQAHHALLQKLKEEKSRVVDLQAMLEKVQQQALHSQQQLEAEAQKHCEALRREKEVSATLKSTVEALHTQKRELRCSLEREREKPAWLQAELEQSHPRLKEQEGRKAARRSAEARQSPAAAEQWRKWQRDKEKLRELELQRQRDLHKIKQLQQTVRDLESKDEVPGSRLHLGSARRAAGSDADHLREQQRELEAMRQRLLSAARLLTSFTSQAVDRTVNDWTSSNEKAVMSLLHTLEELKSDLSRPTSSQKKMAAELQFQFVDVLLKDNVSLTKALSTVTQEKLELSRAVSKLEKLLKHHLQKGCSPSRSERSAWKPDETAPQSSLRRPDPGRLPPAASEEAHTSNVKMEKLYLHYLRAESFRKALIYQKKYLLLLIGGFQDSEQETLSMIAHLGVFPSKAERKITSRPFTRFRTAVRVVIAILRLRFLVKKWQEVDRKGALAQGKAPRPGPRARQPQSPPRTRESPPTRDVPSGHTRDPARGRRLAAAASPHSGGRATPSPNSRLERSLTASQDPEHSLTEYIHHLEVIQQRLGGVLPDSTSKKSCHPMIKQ
UniProt P13667: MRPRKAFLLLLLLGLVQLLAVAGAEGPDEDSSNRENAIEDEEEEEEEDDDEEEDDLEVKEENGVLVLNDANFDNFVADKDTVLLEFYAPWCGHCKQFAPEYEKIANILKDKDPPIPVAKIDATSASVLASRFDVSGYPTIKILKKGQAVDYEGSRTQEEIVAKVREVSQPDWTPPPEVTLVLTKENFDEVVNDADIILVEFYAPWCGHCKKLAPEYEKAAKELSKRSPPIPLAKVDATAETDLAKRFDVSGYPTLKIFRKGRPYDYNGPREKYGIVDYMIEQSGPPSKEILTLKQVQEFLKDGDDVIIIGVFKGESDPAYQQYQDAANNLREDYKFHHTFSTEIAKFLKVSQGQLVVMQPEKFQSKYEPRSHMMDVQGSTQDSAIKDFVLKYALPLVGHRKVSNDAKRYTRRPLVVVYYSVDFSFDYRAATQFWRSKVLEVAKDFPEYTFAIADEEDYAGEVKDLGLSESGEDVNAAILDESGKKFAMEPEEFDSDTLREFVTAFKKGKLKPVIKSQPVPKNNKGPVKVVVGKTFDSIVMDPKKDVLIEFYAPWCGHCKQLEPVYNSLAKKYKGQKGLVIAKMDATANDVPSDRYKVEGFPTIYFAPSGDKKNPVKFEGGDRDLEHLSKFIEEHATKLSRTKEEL
UniProt P30101, whole entry, looked up: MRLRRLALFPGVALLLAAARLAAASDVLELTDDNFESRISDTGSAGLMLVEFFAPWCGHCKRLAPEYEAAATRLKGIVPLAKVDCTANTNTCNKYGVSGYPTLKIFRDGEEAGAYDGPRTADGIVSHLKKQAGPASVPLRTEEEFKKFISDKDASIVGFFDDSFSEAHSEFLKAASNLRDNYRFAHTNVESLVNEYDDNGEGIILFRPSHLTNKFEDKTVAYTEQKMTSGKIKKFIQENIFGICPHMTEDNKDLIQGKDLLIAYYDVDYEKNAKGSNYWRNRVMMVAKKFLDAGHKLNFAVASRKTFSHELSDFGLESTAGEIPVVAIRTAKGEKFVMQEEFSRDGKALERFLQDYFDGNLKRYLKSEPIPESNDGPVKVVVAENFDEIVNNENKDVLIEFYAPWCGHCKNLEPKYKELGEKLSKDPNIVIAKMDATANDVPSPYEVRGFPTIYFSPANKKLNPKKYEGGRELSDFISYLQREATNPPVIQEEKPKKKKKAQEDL

Compound in the test: CC1Cc2ccccc2N1C(=O)C1CCCN(C1)C(=O)CCl (mixture of isomers) [TRIM25 ligand 11 (diastereomer mixture)]
Put plainly: probe-labelled cysteine peptide fold change vs DMSO (competition) (log2 fold change); higher = less target engagement (more negative = stronger competition). As to conditions: THP-1, incubation time: 4 h.

The other results are listed elsewhere or left out.
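Note: competitive chemoproteomic profiling in live THP-1 cells with an iodoacetamide desthiobiotin (IA-DTB) probe, comparing probe-labelled peptide intensities in compound-treated cells against DMSO-treated controls.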

Consider “PCM1_Q15154_1717_IEATGVIQSCAK (UniProt Q15154)”, for which the “probe-labelled cysteine peptide fold change” value was -0.0458 (10 µM) and -0.293 (50 µM).

As to “PDPR_Q8NCN5_85_FCAGILSTAR (UniProt Q8NCN5)”, the “probe-labelled cysteine peptide fold change” value (10 µM) is -0.107 and the “probe-labelled cysteine peptide fold change” value (50 µM) was -0.0716.

As for “PCNT_O95613_357_DLCLENLR (UniProt O95613)”, the “probe-labelled cysteine peptide fold change” value (10 µM) worked out at 0.0333 and the “probe-labelled cysteine peptide fold change” value (50 µM) stood at 0.195.

Turning to “PDIA4_P13667_91_DTVLLEFYAPWCGHCK (UniProt P13667)”, the “probe-labelled cysteine peptide fold change” value is, setting by setting: (10 µM) 0.0339; (50 µM) -0.201.

With “PDIA4_P13667_91+94_DTVLLEFYAPWCGHCK (UniProt P13667)”, the “probe-labelled cysteine peptide fold change” value is, setting by setting: (10 µM) -0.0279; (50 µM) -0.235.

With “PDS5B_Q9NTI5_946_LPLEYMAICALCAK (UniProt Q9NTI5)”, the “probe-labelled cysteine peptide fold change” value (10 µM) came out at 0.233 and the “probe-labelled cysteine peptide fold change” value (50 µM) was 0.0315.

As for “PDS5B_Q9NTI5_1069_LYTVCDVAMNIIMSK (UniProt Q9NTI5)”, the “probe-labelled cysteine peptide fold change” value (10 µM) is -0.193 and the “probe-labelled cysteine peptide fold change” value (50 µM) was -0.0757.

Regarding “PBRM1_Q86U86_1035_CVVMFVK (UniProt Q86U86)”, the “probe-labelled cysteine peptide fold change” value by setting is: (10 µM) 0.114; (50 µM) 0.0732.

“PCYT1A_P49585_5_MDAQCSAK (UniProt P49585)”: the “probe-labelled cysteine peptide fold change” value runs as follows: (10 µM) -0.0266; (50 µM) -0.206.

Regarding “PCNT_O95613_2446_TQEVPTACPDWR (UniProt O95613)”, the “probe-labelled cysteine peptide fold change” value runs as follows: (10 µM) 0.0627; (50 µM) -0.0988.

Turning to “PDS5B_Q9NTI5_333_FNDIHVPIRLECVK (UniProt Q9NTI5)”, the “probe-labelled cysteine peptide fold change” value reads like this: (10 µM) -0.124; (50 µM) -0.15.

On to “PDE12_Q6L8Q7_530_CNMSLTHFFK (UniProt Q6L8Q7)”, for which the “probe-labelled cysteine peptide fold change” value is 0.158 (10 µM) and -0.161 (50 µM).

As for “PDIA3_P30101_92_VDCTANTNTCNK (UniProt P30101)”, the “probe-labelled cysteine peptide fold change” value runs as follows: (10 µM) 0.0305; (50 µM) 0.111.

On to “PDCD6IP_Q8WUM4_691_CSDIVFAR (UniProt Q8WUM4)”, for which the “probe-labelled cysteine peptide fold change” value was -0.146 (10 µM) and 0.0707 (50 µM).

“PDS5B_Q9NTI5_573_QLEVLVSPTCSCK (UniProt Q9NTI5)”: the “probe-labelled cysteine peptide fold change” value is -0.0248 (10 µM) and 0.0151 (50 µM).

Regarding “PCM1_Q15154_582_TVNSNCEINNR (UniProt Q15154)”, the “probe-labelled cysteine peptide fold change” value is -0.0918 (10 µM) and -0.291 (50 µM).

For “PDIA3_P30101_244_KFIQENIFGICPHMTEDNK (UniProt P30101)”, the “probe-labelled cysteine peptide fold change” value reads like this: (10 µM) -0.0149; (50 µM) -0.195.

In the case of “PDCD6IP_Q8WUM4_40_FIQQTYPSGGEEQAQYCR (UniProt Q8WUM4)”, the “probe-labelled cysteine peptide fold change” value runs as follows: (10 µM) 0.0813; (50 µM) -0.253.

Regarding “PDIA4_P13667_94_DTVLLEFYAPWCGHCK (UniProt P13667)”, the “probe-labelled cysteine peptide fold change” value is 0.0567 (10 µM) and -0.17 (50 µM).
